Experimental data as given in publication PMC11291910.

Sequences of proteins named here, by UniProt entry; tags and fusion partners are left off. A change or cut given only in a name is not applied to a line headed by its entry.
UniProt Q3UYI5: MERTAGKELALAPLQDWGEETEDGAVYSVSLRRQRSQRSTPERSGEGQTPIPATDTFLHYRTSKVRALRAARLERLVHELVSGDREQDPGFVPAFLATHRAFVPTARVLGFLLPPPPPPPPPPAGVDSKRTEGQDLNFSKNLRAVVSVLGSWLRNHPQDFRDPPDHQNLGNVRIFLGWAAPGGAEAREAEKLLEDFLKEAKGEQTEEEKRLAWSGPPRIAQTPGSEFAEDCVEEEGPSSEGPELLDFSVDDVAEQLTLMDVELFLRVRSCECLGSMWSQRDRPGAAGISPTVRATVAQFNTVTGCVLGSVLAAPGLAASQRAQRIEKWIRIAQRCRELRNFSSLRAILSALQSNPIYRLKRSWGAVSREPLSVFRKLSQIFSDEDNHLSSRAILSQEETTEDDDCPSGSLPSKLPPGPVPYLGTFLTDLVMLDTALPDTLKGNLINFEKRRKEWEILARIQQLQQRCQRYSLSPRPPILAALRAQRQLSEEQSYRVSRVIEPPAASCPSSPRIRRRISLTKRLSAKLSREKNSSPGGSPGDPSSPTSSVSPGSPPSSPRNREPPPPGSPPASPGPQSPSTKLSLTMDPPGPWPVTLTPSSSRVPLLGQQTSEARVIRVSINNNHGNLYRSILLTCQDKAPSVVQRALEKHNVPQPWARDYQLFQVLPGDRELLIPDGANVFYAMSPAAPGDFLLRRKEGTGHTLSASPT
UniProt P70426: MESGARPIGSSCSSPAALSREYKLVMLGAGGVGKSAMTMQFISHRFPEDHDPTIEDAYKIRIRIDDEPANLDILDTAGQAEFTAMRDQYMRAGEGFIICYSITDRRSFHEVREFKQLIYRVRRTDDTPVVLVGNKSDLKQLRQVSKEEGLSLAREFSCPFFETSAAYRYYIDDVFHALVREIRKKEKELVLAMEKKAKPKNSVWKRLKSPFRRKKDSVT

Molecular target: GST-RalGDS–like 3 (RGL3)-Ras–binding domain (UniProt Q3UYI5)
Assay: pull-down; GST fusion on Glutathione Sepharose beads incubated 2 h at 4°C with 500 μg COS-7 cell lysate (25-mM Tris–HCl pH 7.2, 150-mM NaCl, 5-mM MgCl2, 1% NP-40, 5% glycerol); four washes; Western blotting; cells co-transfected with GFP, GFP-TBC1D10A/B/C WT or GAP-deficient mutants; only the target purified

binding: binds
Substance: Myc-Rit1-WT (from UniProt P70426 1-219)

These are yes or no findings as the source states them, for the method shown. In cells and extracts the contact can be indirect. Binding can be weak; no strength is given.
